Entries after “also recorded” stand apart in the source; their conditions may differ. At least one compound was matched to its structure with a doubt left.
Legend:
[1] = test system: miR-29a; test: Northern blot of cardiac RNA from rat left ventricle; format: in vivo; conditions: PIO 5 mg/kg/day for 3 or 7 days vs water control
[2] = test system: H9c2 cells; test: MTT cell viability, simulated ischemia-reperfusion (SIR) or NSIR; format: cell-based, rat; conditions: PIO 10 nM, 16 h hypoxia and 2 h reoxygenation
[3] = test system: miR-29c; test: miRNA microarray, rat left ventricle; format: in vivo; conditions: PIO 5 mg/kg/day, 7-day pretreatment, oral gavage
[4] = test system: miR-29b; test: miRNA microarray, rat left ventricle; format: in vivo; conditions: PIO 5 mg/kg/day, 7-day pretreatment, oral gavage
[5] = test system: H9c2 cells; test: Apoptotic cell detection (TUNEL assay) after SIR; format: cell-based, rat; conditions: PIO 10 nM
[6] = test system: caspase-3; test: Caspase-3 activity (colorimetric protease assay) in cells subjected to SIR; format: cell-based, rat; conditions: H9c2 cells subjected to SIR
[7] = test system: miR-29a; test: miRNA microarray, rat left ventricle; format: in vivo; conditions: PIO 5 mg/kg/day, 7-day pretreatment, oral gavage
[8] = test system: miR-29c; test: Northern blot of cardiac RNA from rat left ventricle; format: in vivo; conditions: PIO 5 mg/kg/day for 3 or 7 days vs water control
[9] = test system: miR-15b; test: miRNA microarray, rat left ventricle; format: in vivo; conditions: PIO 5 mg/kg/day, 7-day pretreatment, oral gavage
[10] = test system: miR-29c; test: qRT-PCR of miR-29 expression level in H9c2 cells; format: cell-based, rat; conditions: single agent, 24 hours; 10 nM PIO or 1 μM GW9662; vs vehicle control
Description: (§1) The cardiac muscle cell H9c2 was maintained in complete growth medium, supplemented with 10% FBS, penicillin G (100 IU/ml). Cells were incubated at 37° C. in a humidified atmosphere (5% CO2/95% air). Passages 5-9 were used for all experiments. Exponentially growing H9c2 cells were seeded at 1×10^5 per 100 mm plate and incubated until 60-70% confluent. Cells were treated with: 1) vehicle alone (2% ethanol); 2) 10 nM PIO; 3) 1 μM GW9662; 4) 10 nM PIO+1 μM GW9662. PIO was dissolved in 70% ethanol. 24 hours later, cells were harvested and total RNA enriched with small RNAs was isolated using mirVana miRNA Isolation Kit (Ambion). MiR-29 levels were measured using the mirVana qRT-PCR miRNA Detection Kit (Ambion). Reactions containing mirVana qRT-PCR Primer Sets were specific for rat miR-29. The appropriate cycle threshold (Ct) was determined by using the automatic baseline determination feature. The expression of miR-29 between RNA samples was calculated. Data were normalized by evaluating U6 expression.

[11] = test system: miR-29a; test: qRT-PCR of miR-29 expression level in H9c2 cells; format: cell-based, rat; conditions: single agent, 24 hours; 10 nM PIO or 1 μM GW9662; vs vehicle control
Description: as §1

[12] = test system: H9c2 cells; test: Cell death by trypan blue staining, SIR or NSIR; format: cell-based, rat; conditions: PIO 10 nM

**Q.** With `CCc1ccc(CCOc2ccc(CC3SC(=O)NC3=O)cc2)nc1` (stereo not drawn) [PIO, Pioglitazone] as the compound, how does the “expression of miR-29a in rat hearts (Northern blot)” value [1] read?
**A.** time-dependently decreased; also recorded: decreases in the expression

**Q.** And the “viability of cells subjected to SIR (MTT)” value [2]?
**A.** strongly improved the viability

**Q.** And the “myocardial expression of miR-29c compared with control” value [3]?
**A.** significant reduction

**Q.** What about the “myocardial expression of miR-29b compared with control” value [4] of the same compound?
**A.** significant reduction

**Q.** What about the “number of positively stained (TUNEL) cells after exposure to SIR” value [5] of the same compound?
**A.** significantly decreased

**Q.** And the “caspase-3 activity compared to the control group” value [6]?
**A.** significantly reduced

**Q.** What about the “myocardial expression of miR-29a compared with control” value [7] of the same compound?
**A.** significant reduction

**Q.** What about the “expression of miR-29c in rat hearts (Northern blot)” value [8] of the same compound?
**A.** time-dependently decreased; also recorded: decreases in the expression

**Q.** What about the “myocardial expression of miR-15b compared with control” value [9] of the same compound?
**A.** augmentation

**Q.** What about the “miR-29c level in H9c2 cells (qRT-PCR)” value [10] of the same compound?
**A.** remarkably decreased

**Q.** And the “miR-29a level in H9c2 cells (qRT-PCR)” value [11]?
**A.** remarkably decreased

**Q.** And the “death of cells exposed to SIR (trypan blue)” value [12]?
**A.** significantly reduced death
